Measured values published in patent publication US20050148495A1, “Methods and materials including for treating acne” (priority 2003, published 2005).
Like-named read-outs stand apart in the source and are kept apart here. Non-standard residues stand in square brackets, D forms with d. Residues, ends and D or L forms follow the SMILES beside them. d1Nal = N[C@H](Cc1cccc2ccccc12)C(=O)O

System: P. acnes strain (ATCC 6919)
Settings: for Generation: passage at which the resistant strain emerged

SMILES | passages until intermediate-resistant (IR) strains (MIC=64 μg/mL) emerged [passages] | passages until resistant (R) strains (MIC>64 μg/mL) emerged [passages] | Resistance Rate (P. acnes ATCC 6919, listed as Erythromycin IR) | Resistance Rate (P. acnes ATCC 6919, listed as Erythromycin R) | Generation (listed as Erythromycin IR) | Generation (listed as Erythromycin R) | Resistance Rate | resistance rate | resistant colonies after 17 passages | Generation
CC[C@H]1OC(=O)[C@H](C)[C@@H](O[C@H]2C[C@@](C)(OC)[C@@H](O)[C@H](C)O2)[C@H](C)[C@@H](O[C@@H]2O[C@H](C)C[C@H](N(C)C)[C@H]2O)[C@](C)(O)C[C@@H](C)C(=O)[C@H](C)[C@@H](O)[C@]1(C)O [Erythromycin, reference compound] | 11 | 14 | 5 × 10^−8 | 7 × 10^−8 | 11 | 14 | – | – | – | –
CC(C)C[C@@H](NC(=O)[C@H](N)CCCCN)C(=O)N[C@H](Cc1ccccc1)C(=O)N[C@H](CCCNC(=N)N)C(=O)N[C@H](Cc1cccc2ccccc12)C(=O)N[C@H](CCC(N)=O)C(=O)N[C@H](C)C(=O)N[C@H](CCCCN)C(=O)N[C@H](Cc1cccc2ccccc12)C(N)=O [XMP.629, NH2-lys-leu-phe-arg-(3-(1-naphthyl)-ala)-gln-ala-lys-(3-(1-naphthyl)-ala)-CONH2] (H-[dK][dL][dF][dR][d1Nal][dQ][dA][dK][d1Nal]-NH2) | – | – | – | – | – | – | <1.1 × 10^−8 | < 1.2×10^8 | no resistant colonies were formed | ND@17
